The text below walks through data of publication PMC5711941.

Protein sequences, listed by entry. Tags and fused reporters are not part of them. Lines headed by an entry give the natural chain unless they say otherwise; changes in a name come on top. Chains listed by the source or under a name are the forms on record and can include a tag or linker. Residues count along the entry.
cortactinCR (cortactin repeat domain, residues Gly83-Phe324 of mouse cortactin) (Q60598, form named): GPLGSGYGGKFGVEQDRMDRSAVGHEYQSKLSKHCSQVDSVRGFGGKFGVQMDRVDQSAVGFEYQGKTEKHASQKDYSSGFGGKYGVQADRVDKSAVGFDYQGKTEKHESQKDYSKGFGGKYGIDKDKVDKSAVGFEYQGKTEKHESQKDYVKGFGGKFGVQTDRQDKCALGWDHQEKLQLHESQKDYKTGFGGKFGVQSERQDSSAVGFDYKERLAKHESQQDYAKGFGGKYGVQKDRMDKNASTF
cortactinCRH (cortactin repeat and helical domains, residues Gly83-Thr401 of mouse cortactin) (Q60598, form named): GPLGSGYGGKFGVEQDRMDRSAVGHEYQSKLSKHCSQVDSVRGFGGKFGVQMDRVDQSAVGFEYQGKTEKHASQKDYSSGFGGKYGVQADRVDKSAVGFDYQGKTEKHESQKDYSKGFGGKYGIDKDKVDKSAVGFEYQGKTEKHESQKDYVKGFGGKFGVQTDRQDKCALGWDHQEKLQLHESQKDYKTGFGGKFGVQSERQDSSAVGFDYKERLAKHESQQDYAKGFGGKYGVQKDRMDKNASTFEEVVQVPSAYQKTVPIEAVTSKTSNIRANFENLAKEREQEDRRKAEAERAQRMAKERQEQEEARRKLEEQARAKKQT

In assay [1] the target is cortactinCR (cortactin repeat domain, residues Gly83-Phe324 of mouse cortactin) (mouse) (UniProt Q60598). Description: SEC-MALS; WTC-300 silica-based column (Wyatt), 1x PBS with 0.02% sodium azide; 100 µL injected at 0.6 mg/ml (cortactinCRH) or 1.5 mg/mL (cortactinCR); flow 0.4 mL/min; both purified.
Assay [2] has as its target cortactinCRH (cortactin repeat and helical domains, residues Gly83-Thr401 of mouse cortactin) (mouse) (UniProt Q60598). The description is as above.
Assay [3] shares this target. Description: SAXS; cortactinCRH at 0.4 mg/ml and 1.1 mg/mL in 20 mM Tris pH 8, 300 mM NaCl, 1 mM TCEP; 295 K; molecular weight from Porod volume; both purified.

Results are given in words; binding and its absence hold for the method and conditions named.

For “cortactinCR (cortactin repeat domain, residues Gly83-Phe324 of mouse cortactin) (from UniProt Q60598 83-324) (domain or fragment)”, in assay [1], the binding entry is “no binding (tested: 1.5 mg/mL)”.

Regarding “cortactinCRH (cortactin repeat and helical domains, residues Gly83-Thr401 of mouse cortactin) (from UniProt Q60598 83-401) (domain or fragment)”, the binding entry in assay [2] was “no binding (tested: 0.6 mg/ml)”; in assay [3] it was “no binding (tested: 1.1 mg/mL)”.
